Reference: paper PMC5253704
These are yes or no findings as the source states them, for the method shown. Binding seen in cells or lysates may run through a third protein. A result given as binding can be weak or reduced; the word gives no strength. One block for each molecule: values may come before it.

Sequences of proteins named here, by UniProt entry; tags and fusion partners are left off. A change or cut given only in a name is not applied to a line headed by its entry.
UniProt Q61245: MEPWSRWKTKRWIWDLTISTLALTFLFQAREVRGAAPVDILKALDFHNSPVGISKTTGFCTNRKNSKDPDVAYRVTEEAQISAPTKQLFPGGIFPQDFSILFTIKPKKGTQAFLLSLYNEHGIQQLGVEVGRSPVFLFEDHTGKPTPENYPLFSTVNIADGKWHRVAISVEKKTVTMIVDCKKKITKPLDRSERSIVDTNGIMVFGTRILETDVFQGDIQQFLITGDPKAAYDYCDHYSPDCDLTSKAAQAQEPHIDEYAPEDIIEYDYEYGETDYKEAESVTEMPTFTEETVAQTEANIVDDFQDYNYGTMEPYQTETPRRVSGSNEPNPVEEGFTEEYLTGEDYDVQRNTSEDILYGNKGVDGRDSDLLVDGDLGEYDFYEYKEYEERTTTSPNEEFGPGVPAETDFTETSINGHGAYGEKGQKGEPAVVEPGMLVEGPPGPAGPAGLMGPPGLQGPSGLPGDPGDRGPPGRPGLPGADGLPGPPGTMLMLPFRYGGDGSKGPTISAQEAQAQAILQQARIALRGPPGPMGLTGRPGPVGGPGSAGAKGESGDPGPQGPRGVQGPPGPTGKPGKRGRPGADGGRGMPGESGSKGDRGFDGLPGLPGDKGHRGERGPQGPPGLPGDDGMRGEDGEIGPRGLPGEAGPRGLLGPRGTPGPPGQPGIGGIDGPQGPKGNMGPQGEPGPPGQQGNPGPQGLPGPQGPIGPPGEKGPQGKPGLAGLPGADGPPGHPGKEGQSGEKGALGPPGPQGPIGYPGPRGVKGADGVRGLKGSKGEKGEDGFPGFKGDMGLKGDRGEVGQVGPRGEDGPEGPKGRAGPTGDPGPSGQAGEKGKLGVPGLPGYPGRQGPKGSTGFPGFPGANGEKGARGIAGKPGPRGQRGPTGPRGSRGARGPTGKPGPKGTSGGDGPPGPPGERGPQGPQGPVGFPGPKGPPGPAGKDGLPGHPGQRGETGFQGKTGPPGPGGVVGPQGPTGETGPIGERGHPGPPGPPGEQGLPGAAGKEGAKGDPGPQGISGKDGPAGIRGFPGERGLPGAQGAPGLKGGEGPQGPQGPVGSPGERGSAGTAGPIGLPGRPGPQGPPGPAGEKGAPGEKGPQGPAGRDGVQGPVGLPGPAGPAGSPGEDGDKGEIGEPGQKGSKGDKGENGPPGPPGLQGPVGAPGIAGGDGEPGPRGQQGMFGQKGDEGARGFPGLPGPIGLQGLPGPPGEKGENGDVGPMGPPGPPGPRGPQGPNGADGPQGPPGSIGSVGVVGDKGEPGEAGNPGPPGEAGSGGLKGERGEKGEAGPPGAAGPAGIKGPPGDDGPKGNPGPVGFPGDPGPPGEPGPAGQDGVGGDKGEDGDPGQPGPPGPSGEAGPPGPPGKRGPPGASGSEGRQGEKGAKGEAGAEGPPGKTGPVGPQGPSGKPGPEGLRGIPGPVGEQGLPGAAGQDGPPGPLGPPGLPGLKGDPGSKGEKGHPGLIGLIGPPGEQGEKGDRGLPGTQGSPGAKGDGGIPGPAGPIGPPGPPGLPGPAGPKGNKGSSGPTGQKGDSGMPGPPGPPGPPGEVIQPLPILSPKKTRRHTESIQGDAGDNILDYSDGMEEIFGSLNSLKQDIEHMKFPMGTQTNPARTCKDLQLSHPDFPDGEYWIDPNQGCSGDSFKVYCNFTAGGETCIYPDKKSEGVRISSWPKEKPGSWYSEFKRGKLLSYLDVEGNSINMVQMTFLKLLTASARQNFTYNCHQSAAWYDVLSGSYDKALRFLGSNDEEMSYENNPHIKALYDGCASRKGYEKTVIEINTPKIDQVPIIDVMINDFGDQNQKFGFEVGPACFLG

What was measured:
[1] = biological target: T1, glypican-1, endogenous in WT/PyMT mouse mammary tumours (mouse (endogenous in MMTV-PyMT tumours)) (UniProt Q9QZF2); test: co-IP; immunoprecipitation of endogenous proteins from WT/PyMT (and KO/PyMT) tumour extracts in RIPA buffer, 0.3 mg protein per ml, 900 μl; protein G or A agarose, overnight 4 °C; immunoblot
T1 sequence: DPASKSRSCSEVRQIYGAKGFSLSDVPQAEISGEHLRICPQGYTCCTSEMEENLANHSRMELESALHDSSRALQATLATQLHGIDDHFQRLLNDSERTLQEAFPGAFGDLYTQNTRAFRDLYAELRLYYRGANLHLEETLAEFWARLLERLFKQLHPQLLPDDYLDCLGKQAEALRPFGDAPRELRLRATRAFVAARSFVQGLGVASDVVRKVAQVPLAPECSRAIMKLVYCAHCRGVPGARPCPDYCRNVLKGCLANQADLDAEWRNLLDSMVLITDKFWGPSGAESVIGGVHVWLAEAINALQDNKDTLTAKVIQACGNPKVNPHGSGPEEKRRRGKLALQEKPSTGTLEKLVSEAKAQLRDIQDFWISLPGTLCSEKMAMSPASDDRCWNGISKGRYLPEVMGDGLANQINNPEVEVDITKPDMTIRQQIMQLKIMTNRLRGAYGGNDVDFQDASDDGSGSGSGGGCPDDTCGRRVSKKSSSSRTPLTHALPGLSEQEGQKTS

[2] = biological target: α3(V) collagen chain, endogenous in WT/PyMT mouse mammary tumours (mouse (endogenous in MMTV-PyMT tumours)); test: as above

binding [1]: binds
Molecule: α3(V) collagen chain, endogenous in WT/PyMT mouse mammary tumours

binding [1]: no binding
Molecule: α1(XI) collagen chain, endogenous in WT/PyMT mouse mammary tumours (from UniProt Q61245)

binding [2]: binds
B1: glypican-1, endogenous in WT/PyMT mouse mammary tumours (protein, UniProt Q9QZF2 24-529)
chain: T1 sequence
